Laboratory results: PubChem BioAssay AID1053208 (Peter MacCallum Cancer Centre, 2014)
The deposit covers about 17,000 reagents; shown is a part drawn at random. Of all reagents, 788 (4.7%) are marked active. 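Calls rest on z-score classes alone; an extra cut-off of viability at most 70% of control was not applied to them.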 Reagents against one gene are numbered here. Further read-outs or replicates are left out here.

- Screen: 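Find knock-downs that sensitise mouse osteosarcoma cells to doxorubicin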 (primary screen)
- System: mouse osteosarcoma cells, early-passage culture from an engineered mouse model of fibroblastic bone tumour
- Reagent: siRNA pool against mouse genes, 40 nM
- Timing: about 120 h (48 h before drug, then 72 h with drug)
- Treatment: doxorubicin 100 nM for 72 h, roughly 30-40% inhibitory dose
- Read-out: 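Luminescent ATP signal taken as viability with or without 100 nM doxorubicin for 72 h; mean of two wells set against non-targeting siRNA and turned into robust z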
- Reading the numbers: viability z-score with doxorubicin: higher = more viable cells under doxorubicin; viability z-score without drug: higher = more viable cells with knock-down alone
- Rule for the call: 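Called active if knock-down leaves viability unchanged without drug (z within -2 to 2) but lowers it with doxorubicin (z at or under -2)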

The opening 3 entries as a preview:
gene | reagent no. | combined z-score class | viability z-score with doxorubicin | viability z-score without drug | Outcome
Cln8 (CLN8 transmembrane ER and ERGIC protein) | 1 | no change with or without drug | -1.57 | -0.51 | inactive
Syngr1 (synaptogyrin 1) | 1 | low cell count with doxorubicin only | -2.59 | -0.67 | active
Tceal5 (transcription elongation factor A (SII)-like 5) | 1 | high cell count without drug only | 1.69 | 2.53 | inactive

Results, from the start:
gene | reagent no. | combined z-score class | viability z-score with doxorubicin | viability z-score without drug | Outcome
Cln8 (CLN8 transmembrane ER and ERGIC protein) | 1 | no change with or without drug | -1.57 | -0.51 | inactive
Syngr1 (synaptogyrin 1) | 1 | low cell count with doxorubicin only | -2.59 | -0.67 | active
Tceal5 (transcription elongation factor A (SII)-like 5) | 1 | high cell count without drug only | 1.69 | 2.53 | inactive
Got2 (glutamatic-oxaloacetic transaminase 2, mitochondrial) | 1 | no change with or without drug | 0 | 0.51 | inactive
Rcor3 (REST corepressor 3) | 1 | low cell count with doxorubicin only | -3.04 | -1.18 | active
Mydgf (myeloid derived growth factor) | 1 | no change with or without drug | -1.35 | 1.18 | inactive
Rapgef3 (Rap guanine nucleotide exchange factor (GEF) 3) | 1 | no change with or without drug | 0.67 | -0.17 | inactive
Dusp19 (dual specificity phosphatase 19) | 1 | no change with or without drug | 1.46 | -0.17 | inactive
Frrs1 (ferric-chelate reductase 1) | 1 | high cell count with doxorubicin only | 2.92 | 1.52 | inactive
Nid2 (nidogen 2) | 1 | no change with or without drug | 0.9 | -0.34 | inactive
9230109A22Rik (RIKEN cDNA 9230109A22 gene) | 1 | no change with or without drug | 1.12 | -0.17 | inactive
1700018F24Rik (RIKEN cDNA 1700018F24 gene) | 1 | no change with or without drug | -1.8 | -0.67 | inactive
Mturn | 1 | no change with or without drug | 1.12 | 1.35 | inactive
Kif5b (kinesin family member 5B) | 1 | no change with or without drug | -0.9 | -0.84 | inactive
Zan (zonadhesin) | 1 | no change with or without drug | 1.01 | 0.84 | inactive
Kcnj6 (potassium inwardly-rectifying channel, subfamily J, member 6) | 1 | no change with or without drug | 1.01 | -0.84 | inactive
Spink4 (serine peptidase inhibitor, Kazal type 4) | 1 | no change with or without drug | 0.34 | 0.17 | inactive
Mmp16 (matrix metallopeptidase 16) | 1 | no change with or without drug | 0 | -0.17 | inactive
Ptpn20 (protein tyrosine phosphatase, non-receptor type 20) | 1 | no change with or without drug | 0 | -1.35 | inactive
Dcaf8 (DDB1 and CUL4 associated factor 8) | 1 | no change with or without drug | -1.57 | -1.01 | inactive
Hivep1 | 1 | high cell count with doxorubicin only | 2.25 | 1.18 | inactive
Acp5 (acid phosphatase 5, tartrate resistant) | 1 | no change with or without drug | -0.67 | 0.84 | inactive
Dpyd (dihydropyrimidine dehydrogenase) | 1 | no change with or without drug | 0.22 | -1.52 | inactive
Cept1 (choline/ethanolaminephosphotransferase 1) | 1 | no change with or without drug | -1.8 | -1.52 | inactive
Vmn2r129 (vomeronasal 2, receptor 129) | 1 | low cell count with doxorubicin only | -2.47 | 0.34 | active
Vmn2r129 (vomeronasal 2, receptor 129) | 2 | high cell count without drug only | 1.91 | 3.04 | inactive
Adamts7 (ADAM metallopeptidase with thrombospondin type 1 motif 7) | 1 | no change with or without drug | 0.22 | 1.18 | inactive
Zfp771 (zinc finger protein 771) | 1 | no change with or without drug | 1.01 | 1.52 | inactive
Dlgap2 (DLG associated protein 2) | 1 | no change with or without drug | 0.34 | 0.84 | inactive
Tspan7 (tetraspanin 7) | 1 | no change with or without drug | -1.35 | 0.84 | inactive
Cdc5l (cell division cycle 5-like) | 1 | low cell count without drug only | -1.57 | -2.87 | inactive
Eif3f (eukaryotic translation initiation factor 3, subunit F) | 1 | low cell count with and without drug | -3.26 | -2.19 | inactive
Cdc123 (cell division cycle 123) | 1 | no change with or without drug | 0.9 | -1.18 | inactive
Or56a3b (olfactory receptor family 56 subfamily A member 3B) | 1 | no change with or without drug | 0 | 0 | inactive
